Reference: patent US20210238253A1 (GUANGDONG ZHAOTAI INVIVO BIOMEDICINE, published 2021)
These are yes or no findings as the source states them, for the method shown. Some binding calls cover weakened binding; strength is not graded here.

Amino acid sequences for entries named in this document (tags omitted). A change or cut given only in a name is not applied to a line headed by its entry. Chains listed by the source or under a name are the forms on record and can include a tag or linker. Residues count along the entry.
UniProt P15391: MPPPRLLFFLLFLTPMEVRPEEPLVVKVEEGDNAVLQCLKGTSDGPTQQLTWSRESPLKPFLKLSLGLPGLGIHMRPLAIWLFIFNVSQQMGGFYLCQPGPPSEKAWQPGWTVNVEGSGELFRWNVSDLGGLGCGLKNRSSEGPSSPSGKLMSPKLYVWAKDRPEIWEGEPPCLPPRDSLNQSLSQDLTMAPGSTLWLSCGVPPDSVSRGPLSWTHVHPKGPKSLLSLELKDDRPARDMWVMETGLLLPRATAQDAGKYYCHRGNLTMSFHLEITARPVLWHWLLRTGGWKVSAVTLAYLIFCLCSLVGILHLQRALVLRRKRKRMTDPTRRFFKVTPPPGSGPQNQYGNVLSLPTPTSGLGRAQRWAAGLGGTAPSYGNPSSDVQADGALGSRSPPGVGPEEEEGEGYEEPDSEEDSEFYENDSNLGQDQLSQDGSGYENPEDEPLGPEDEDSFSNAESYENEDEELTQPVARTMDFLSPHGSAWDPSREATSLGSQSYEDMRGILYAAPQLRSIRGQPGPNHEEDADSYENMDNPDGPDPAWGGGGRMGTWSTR
CD19 expressed by Nalm6 cells: residues 20-556 of P15391
hCD19-his (human CD19 recombinant protein, Pro20-Lys291, His tag at C-terminus): residues 20-291 of P15391

Tests used:
[1] = molecular target: hCD19-his (human CD19 recombinant protein, Pro20-Lys291, His tag at C-terminus) (human) (UniProt P15391); test: ELISA, coated hCD19-His
[2] = molecular target: CD19 expressed by Nalm6 cells (UniProt P15391); test: flow cytometry on Nalm6 cells
[3] = molecular target: hCD19-his (human CD19 recombinant protein, Pro20-Lys291, His tag at C-terminus) (human) (UniProt P15391); test: ELISA, coated hCD19-His 0.5 µg/ml, antibody 2 µg/ml

binding [1]: binds | binding [2]: binds | binding [3]: binds
B1: 11H8 (hybridoma antibody) (antibody, V domains shown)
VH: QVQLVESGGGVVQPGRSLRLSCAASGFTFSRHGMHWVRQAPGKGLEWVAVIWYDGSNQYYVDSVKGRFTISRDNSKNTLDLQMNSLRVEDTAVYYCARRSITWYGGFDIWGQGTMVTVSS
VL: DIQMTQSPSTLSASVGDRVTITCRASQSISSWLAWYQQKPGKAPKLLIYKASSLESGVPPRFSGSGSGTEFTLTISSLQPDDFATYYCQQYNSAYTFGQGTKLEIK
notes: hybridoma mAb from H2L2 mouse (human variable, rat constant regions)
